Experimental data: PubChem BioAssay AID1259254 (NCATS, 2017)
Shown is one part, drawn at random, of about 59,000 reagents tested. Of all reagents, about 1,550 (2.6%) got an active call. 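G2 share is only a proxy for re-replication; each gene was hit by three separate siRNAs, and active genes were retested.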 Raw values vary from plate to plate and are shown uncorrected. The numbers tell different reagents against one gene apart. No sequences are given here. The record does not give: the amount of reagent.

- Screen: 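Finding genes that stop cells copying their DNA twice in one cycle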 (primary screen)
- Cell system: human HCT116 colorectal cancer cells
- Reagents: single siRNA against human genes
- Timing: 3 days
- Detection: 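Imaged Hoechst DNA stain sorts each cell into a cycle phase by DNA amount; per plate, G2 fraction set to 0% for non-targeting and 100% for GMNN siRNA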
- Reading the numbers: G2 robust z-score and G2 cells, % of GMNN control: higher = more G2 cells, more excess DNA replication; raw share of cells in G2: higher = larger share of cells with G2 DNA content
- Call rule: 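Active siRNAs have a G2 robust z of 5 or more median absolute deviations over the median, which in these data means about 38% or higher of GMNN control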

Gene,reagent no.,G2 robust z-score,"G2 cells, % of GMNN control",raw share of cells in G2 (%),Outcome
HECTD3,1,-1.5,-7.6,1.44,inactive
HECTD3,2,-0.184,1.68,6.13,inactive
HECTD3,3,4.2,32.5,16.8,inactive
ARHGEF2,1,7.63,56.7,25,active
ARHGEF2,2,-0.333,0.623,5.48,inactive
ARHGEF2,3,-0.713,-2.05,3.61,inactive
NFAM1,1,-0.369,0.369,3.95,inactive
NFAM1,2,1.38,12.7,6.83,inactive
NFAM1,3,0.279,4.93,4.79,inactive
DGKB,1,-0.123,2.1,6.3,inactive
DGKB,2,-0.647,-1.59,4.87,inactive
DGKB,3,0.209,4.44,5.59,inactive
CDH12,1,-0.482,-0.425,4.81,inactive
CDH12,2,-0.895,-3.33,3.78,inactive
CDH12,3,0.352,5.44,5.97,inactive
ELANE,1,0.793,8.55,7.1,inactive
ELANE,2,-0.442,-0.14,5.51,inactive
ELANE,3,1.06,10.4,8.6,inactive
NAXD,1,-0.949,-3.71,3.1,inactive
NAXD,2,-0.36,0.432,4.32,inactive
NAXD,3,0.0582,3.38,4.21,inactive
TRMT2A,1,1.6,14.2,8.9,inactive
TRMT2A,2,0.469,6.27,6.04,inactive
TRMT2A,3,-0.851,-3.02,4.79,inactive

6 entries already listed, arranged by “G2 robust z-score”, low to high.
Gene,reagent no.,G2 robust z-score,"G2 cells, % of GMNN control",raw share of cells in G2 (%),Outcome
NAXD,1,-0.949,-3.71,3.1,inactive
ELANE,2,-0.442,-0.14,5.51,inactive
NAXD,2,-0.36,0.432,4.32,inactive
NAXD,3,0.0582,3.38,4.21,inactive
ELANE,3,1.06,10.4,8.6,inactive
TRMT2A,1,1.6,14.2,8.9,inactive

The results go on.
Gene,reagent no.,G2 robust z-score,"G2 cells, % of GMNN control",raw share of cells in G2 (%),Outcome
ANKRD34C,1,-0.538,-0.818,3.49,inactive
ANKRD34C,2,0.634,7.43,6.64,inactive
ANKRD34C,3,1.22,11.6,9.59,inactive
ARMH1,1,1.33,12.3,8.22,inactive
ARMH1,2,5.13,39.1,20.4,active
ARMH1,3,0.185,4.27,5.91,inactive
NCOA5,1,-0.416,0.0389,4.24,inactive
NCOA5,2,-0.966,-3.83,4.06,inactive
NCOA5,3,-0.605,-1.29,3.89,inactive
RGS3,1,-1.64,-8.55,2.04,inactive
RGS3,2,4.44,34.2,17.7,inactive
RGS3,3,3.15,25.1,12.5,inactive
UQCRC2,1,-0.514,-0.647,5.33,inactive
UQCRC2,2,0.409,5.85,6.98,inactive
UQCRC2,3,-0.221,1.41,4.44,inactive
RHOJ,1,1.42,12.9,11,inactive
RHOJ,2,1.25,11.8,8.51,inactive
RHOJ,3,6.52,48.8,22,active
KRT78,1,4.18,32.4,21.4,inactive
KRT78,2,0.757,8.29,8.19,inactive
KRT78,3,6.81,50.9,23.3,active
CLDN17,1,1.54,13.8,7.67,inactive
CLDN17,2,-0.468,-0.329,5.76,inactive
CLDN17,3,0.0424,3.27,4.66,inactive
